Part of at least one peptide drawing is inferred or uncertain, most often the ends. Ends that are not written are not given here.
System: angiogenesis in cornea of guinea pig
Experiment: Angiogenesis in cornea of guinea pig by transplantation of basic FGF (bFGF) pellet
Format: in vivo

**Q.** For “DPMSSTYIEELGKREVTIPPKYRELLA [27 mer calpastatin peptide]”, which “wet weight of cornea” value (9 days posttransplantation, test pellet (27 mer calpastatin peptide 0.03 and 0.1 µmole; leupeptin 0.1 µmole) together with bFGF pellet, Fig. 3) is on record?
**A.** The value was “suppressed increase in the wet weight of cornea as compared to the control group”.

**Q.** What about the “amount of albumin in cornea” value (9 days posttransplantation, test pellet (27 mer calpastatin peptide 0.03 and 0.1 µmole; leupeptin 0.1 µmole) together with bFGF pellet, Fig. 4) of the same sequence?
**A.** The value was “suppressed increase in the amount of albumin in cornea as compared to the control group”.

**Q.** What about the “appearance of blood vessel, observation of cornea with a slit lamp” value (test pellet (27 mer calpastatin peptide 0.03 and 0.1 µmole/pellet; leupeptin 0.1 µmole/pellet) together with bFGF (500 ng) pellet, compared to control group, Figs. 1 and 2) of the same sequence?
**A.** Its value is “the degree of appearance was mild”.

From patent EP0928786A1, “Angiogenesis inhibitor” (Senju Pharmaceutical Co., Ltd., priority 1995, dated 1997)
